PubChem BioAssay AID1053208, Peter MacCallum Cancer Centre, 2014
Test: 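Find knock-downs that sensitise mouse osteosarcoma cells to doxorubicin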 (primary screen). Cells: mouse osteosarcoma cells, early-passage culture from an engineered mouse model of fibroblastic bone tumour. Reagents: siRNA pool against mouse genes, 40 nM. Time to read-out: about 120 h (48 h before drug, then 72 h with drug). Conditions: doxorubicin 100 nM for 72 h, roughly 30-40% inhibitory dose. Read-out: 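Viability read as ATP luminescence after 72 h of 100 nM doxorubicin or none, duplicate wells averaged, scaled to non-targeting siRNA, then expressed as robust z-scores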. Reading the numbers: viability z-score with doxorubicin: higher = more viable cells under doxorubicin; viability z-score without drug: higher = more viable cells with knock-down alone. Hit rule: 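a pool counts as active when its viability z-score with doxorubicin is -2 or below and its z-score without drug lies between -2 and 2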.
The whole screen tested about 17,000 reagents; below is an unselected part. Of all reagents, 788 (4.7%) were called active. 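Calls rest on z-score classes alone; an extra cut-off of viability at most 70% of control was not applied to them.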 Not all columns of the deposit are shown.

| gene symbol | combined z-score class | viability z-score with doxorubicin | viability z-score without drug | activity call |
| --- | --- | --- | --- | --- |
| Gpr26 (G protein-coupled receptor 26) | no change with or without drug | 0.22 | -0.17 | inactive |
| Impa2 (inositol monophosphatase 2) | no change with or without drug | 0.45 | 0.67 | inactive |
| Mtf2 (metal response element binding transcription factor 2) | no change with or without drug | 0.22 | -0.17 | inactive |
| Daglb (diacylglycerol lipase, beta) | no change with or without drug | 1.12 | 1.01 | inactive |
| HDAC9 | no change with or without drug | 0.9 | 1.52 | inactive |
| Mylk2 (myosin, light polypeptide kinase 2, skeletal muscle) | no change with or without drug | 0.67 | -0.17 | inactive |
| Vmn1r222 (vomeronasal 1 receptor 222) | high cell count with and without drug | 2.02 | 2.19 | inactive |
| Clec10a (C-type lectin domain family 10, member A) | no change with or without drug | -0.45 | -0.17 | inactive |
| Armcx3 (armadillo repeat containing, X-linked 3) | no change with or without drug | -0.11 | -0.51 | inactive |
| 4921524J17Rik (RIKEN cDNA 4921524J17 gene) | high cell count without drug only | -1.46 | 2.7 | inactive |
| Rhoh (ras homolog family member H) | high cell count without drug only | 1.01 | 3.37 | inactive |
| Lims2 (LIM and senescent cell antigen like domains 2) | no change with or without drug | 1.57 | -0.17 | inactive |
| Prickle3 (prickle planar cell polarity protein 3) | low cell count with doxorubicin only | -2.36 | -1.52 | active |
| Derl2 (Der1-like domain family, member 2) | no change with or without drug | 0.9 | 0.34 | inactive |
| Cgrrf1 (cell growth regulator with ring finger domain 1) | no change with or without drug | -0.67 | -1.69 | inactive |
| Akr1c21 (aldo-keto reductase family 1, member C21) | no change with or without drug | -0.45 | 0.17 | inactive |
| Ca15 (carbonic anhydrase 15) | no change with or without drug | -0.67 | -0.51 | inactive |
| Shroom1 (shroom family member 1) | no change with or without drug | -0.11 | 0.17 | inactive |
| Med25 (mediator complex subunit 25) | no change with or without drug | 0.67 | 0.84 | inactive |
| Gabra2 (gamma-aminobutyric acid type A receptor subunit alpha 2) | no change with or without drug | 0.67 | 0.34 | inactive |
| Ipo11 (importin 11) | no change with or without drug | -0.67 | -1.52 | inactive |
| Or14j7 (olfactory receptor family 14 subfamily J member 7) | no change with or without drug | -0.22 | -1.35 | inactive |
| Mageb18 (MAGE family member B18) | no change with or without drug | -0.79 | 0.84 | inactive |
| Ptgdr2 (prostaglandin D2 receptor 2) | no change with or without drug | -1.57 | -0.17 | inactive |
| 8430403M15RIK | no change with or without drug | 0.45 | 0.17 | inactive |
| Fam234a (family with sequence similarity 234, member A) | no change with or without drug | 0.22 | 0.17 | inactive |
| Trim34a (tripartite motif-containing 34A) | high cell count with doxorubicin only | 2.02 | 1.69 | inactive |
| Zim1 (zinc finger, imprinted 1) | low cell count with doxorubicin only | -2.14 | 1.35 | active |
| Pygl (liver glycogen phosphorylase) | no change with or without drug | -0.79 | -0.17 | inactive |
| Spag16 (sperm associated antigen 16) | no change with or without drug | -0.67 | 0.51 | inactive |
| Scgb3a1 (secretoglobin, family 3A, member 1) | no change with or without drug | -1.35 | -0.51 | inactive |
| Fpr-rs6 (formyl peptide receptor, related sequence 6) | no change with or without drug | 0.9 | 0.34 | inactive |
| Or51l4 (olfactory receptor family 51 subfamily L member 4) | no change with or without drug | -0.9 | -1.18 | inactive |
| Zfp318 (zinc finger protein 318) | high cell count without drug only | 1.12 | 2.02 | inactive |
